Results: US20250019350A1, “SYNTHESIS OF THE PROSTATE SPECIFIC MEMBRANE ANTIGEN (PSMA) RADIOLABELED INHIBITOR [18F]DCFPYL” (Progenics Pharmaceuticals, Inc, priority 2023, published 2025)

Test: Retention of product on HLB/SepPak cartridge during production (AIO waste line radiodetector)

O=C(O)CC[C@H](NC(=O)N[C@@H](CCCCNC(=O)c1ccc([18F])nc1)C(=O)O)C(=O)O [Lot 18F-DCFPyL, 2-(3-{1-carboxy-5-[(6-[18F]fluoro-pyridine-3-carbonyl)-amino]-pentyl}ureido)-pentanedioic acid]
product retained on the SepPak (pH 2 ascorbate in the collection vial): > 98% | portion of the product not retained on the SepPak (pH 6 ascorbate in the collection vial): approximately 40%
